These are yes or no findings as the source states them, for the method shown. Some binding calls cover weakened binding; strength is not graded here.
B1: Mab1.10.2 (antibody, IgG2, V domains shown)
VH: QVQLQESGPGLVKPSETLSLTCTVSGDSISNYYWSWIRQPPGKGLEWIGYFYYSGSTNYNPSLKSRVTISVDTSKNQFSLKLSSVTAADTAVYYCARDRGWADYWGQGTLVTVSS
VL: EIVLTQSPGTLSLSPGERATLSCRTSQSISSSYLAWYQQKPGQVPRLLIYGASSRATGIPDRFSGSGSGTDFTLTISRLEPEDFAVYYCQQYGSSITFGQGTRLEIKR
B2: Mab2.22.1 (antibody, IgG2, V domains shown)
VH: QVQLEQSGPGLVKPSQNLSLTCTVSGGSISSGGYFWSWIRQHPGKGLEWIGYIYYSGNTYYNPSLKSRVTISVDTSKNQFSLKLSSVTAADTAVYYCARDYYYDTSGFSYRYDWYYGMDVWGQGTTVTVSS
VL: DIQLTQSPSSLSASVGDRVTITCRASQGIRNDLGWYQQKPGKAPKRLIYAASSLQNGVPSRFSGSGSGTEFTLTISSLQPEDFATYYCLQHNTYPAFGQGTKVEIKR

Sequences of proteins named here, by UniProt entry; tags and fusion partners are left off. A change or cut given only in a name is not applied to a line headed by its entry.
UniProt Q14956: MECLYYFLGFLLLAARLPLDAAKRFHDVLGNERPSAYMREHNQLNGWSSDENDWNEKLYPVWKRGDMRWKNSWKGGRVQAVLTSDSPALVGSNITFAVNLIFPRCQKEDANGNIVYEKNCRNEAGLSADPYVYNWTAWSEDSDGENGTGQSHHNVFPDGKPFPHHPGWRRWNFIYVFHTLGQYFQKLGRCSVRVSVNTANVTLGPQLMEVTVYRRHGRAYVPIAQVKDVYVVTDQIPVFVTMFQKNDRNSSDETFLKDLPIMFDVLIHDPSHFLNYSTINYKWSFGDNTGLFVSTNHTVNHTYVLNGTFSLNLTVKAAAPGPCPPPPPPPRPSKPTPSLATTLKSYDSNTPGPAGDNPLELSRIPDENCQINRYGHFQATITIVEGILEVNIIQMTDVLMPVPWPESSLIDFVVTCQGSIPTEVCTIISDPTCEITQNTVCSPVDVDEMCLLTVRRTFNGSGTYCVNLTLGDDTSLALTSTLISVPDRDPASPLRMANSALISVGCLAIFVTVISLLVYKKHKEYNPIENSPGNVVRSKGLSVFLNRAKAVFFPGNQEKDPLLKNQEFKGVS

Experiments:
[1] = molecular target: Recombinant human GPNMB extra-cellular domain (ECD) with a C-terminus V5-HIS tag (human) (UniProt Q14956); experiment: Biacore, mAb captured on protein A
[2] = molecular target: GPNMB (CG56972) as expressed by human cell lines (human) (UniProt Q14956); experiment: FACS on UACC-62 cells
[3] = molecular target: GPNMB (CG56972) as expressed by human cell lines (human) (UniProt Q14956); experiment: immunohistochemistry on normal and tumor human tissue microarrays

Binder	binding [1]	binding [2]	binding [3]
B1	binds		
B2		binds	binds

From US20130244255A1, “ANTIBODIES DIRECTED TO GPNMB AND USES THEREOF” (priority 2006, published 2013)
